The supplement of paper PMC7661543
Differences between knockout arms are mostly noise.

System: ZR-75-1
Assay: relative cell number vs DMSO control (72 h) (% of DMSO); higher = less growth inhibition (more cells)
Experimental: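 QMAP-Seq: a pool of 5 breast cancer cell lines (ZR-75-1, SKBR3, HCC-38, MDA-MB-231, BT-20), each carrying 12 doxycycline-inducible Cas9 sgRNA perturbations (11 knockouts plus non-targeting sgNT), was treated with compounds for 72 h at four 10-fold doses (10 nM-10 uM or 1 nM-1 uM range). Barcodes were amplified and sequenced, and cell number was interpolated from 293T spike-in standard curves. The result is expressed as % of the median of DMSO wells. Two biological replicates.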

CCNC(=O)c1noc(-c2cc(C(C)C)c(O)cc2O)c1-c1ccc(CN2CCOCC2)cc1 [NVPAUY922]
Conditions	relative cell number
sgRNA knockout: sgATF3, 1 nM	90.9
sgRNA knockout: sgATF3, 10 nM	97.9
sgRNA knockout: sgATF3, 100 nM	30.3
sgRNA knockout: sgATF3, 1000 nM	22.5
sgRNA knockout: sgATF4, 1 nM	130
sgRNA knockout: sgATF4, 10 nM	83.1
sgRNA knockout: sgATF4, 100 nM	36.5
sgRNA knockout: sgATF4, 1000 nM	15.8
sgRNA knockout: sgATF6, 1 nM	78.4
sgRNA knockout: sgATF6, 10 nM	108
sgRNA knockout: sgATF6, 100 nM	20.7
sgRNA knockout: sgATF6, 1000 nM	19.4
sgRNA knockout: sgATG7, 1 nM	122
sgRNA knockout: sgATG7, 10 nM	62
sgRNA knockout: sgATG7, 100 nM	21
sgRNA knockout: sgATG7, 1000 nM	20.7
sgRNA knockout: sgERN1, 1 nM	96.5
sgRNA knockout: sgERN1, 10 nM	97.7
sgRNA knockout: sgERN1, 100 nM	35.4
sgRNA knockout: sgERN1, 1000 nM	28.7
sgRNA knockout: sgHSF2, 1 nM	117
sgRNA knockout: sgHSF2, 10 nM	73.6
sgRNA knockout: sgHSF2, 100 nM	28.1
sgRNA knockout: sgHSF2, 1000 nM	21.5
sgRNA knockout: sgNFE2L2, 1 nM	128
sgRNA knockout: sgNFE2L2, 10 nM	104
sgRNA knockout: sgNFE2L2, 100 nM	24
sgRNA knockout: sgNFE2L2, 1000 nM	21.5
sgRNA knockout: sgSLC35F2, 1 nM	51.7
sgRNA knockout: sgSLC35F2, 10 nM	86
sgRNA knockout: sgSLC35F2, 100 nM	17.3
sgRNA knockout: sgSLC35F2, 1000 nM	18.8
sgRNA knockout: sgXBP1, 1 nM	115
sgRNA knockout: sgXBP1, 10 nM	94.4
sgRNA knockout: sgXBP1, 100 nM	25.2
sgRNA knockout: sgXBP1, 1000 nM	25.8

O=C(Nc1ccc([N+](=O)[O-])cc1Cl)c1cc(Cl)ccc1O [Niclosamide]
Conditions	relative cell number
sgRNA knockout: sgATF3, 10 nM	96.4
sgRNA knockout: sgATF3, 100 nM	90.8
sgRNA knockout: sgATF3, 1000 nM	86.7
sgRNA knockout: sgATF3, 10000 nM	55.5
sgRNA knockout: sgATF4, 10 nM	94.5
sgRNA knockout: sgATF4, 100 nM	80.4
sgRNA knockout: sgATF4, 1000 nM	109
sgRNA knockout: sgATF4, 10000 nM	69.5
sgRNA knockout: sgATF6, 10 nM	80.8
sgRNA knockout: sgATF6, 100 nM	52
sgRNA knockout: sgATF6, 1000 nM	86.7
sgRNA knockout: sgATF6, 10000 nM	56.7
sgRNA knockout: sgATG7, 10 nM	89.5
sgRNA knockout: sgATG7, 100 nM	71
sgRNA knockout: sgATG7, 1000 nM	114
sgRNA knockout: sgATG7, 10000 nM	48.2
sgRNA knockout: sgERN1, 10 nM	99
sgRNA knockout: sgERN1, 100 nM	85.5
sgRNA knockout: sgERN1, 1000 nM	102
sgRNA knockout: sgERN1, 10000 nM	58.7
sgRNA knockout: sgHSF2, 10 nM	107
sgRNA knockout: sgHSF2, 100 nM	77.9
sgRNA knockout: sgHSF2, 1000 nM	95.2
sgRNA knockout: sgHSF2, 10000 nM	42.9
sgRNA knockout: sgNFE2L2, 10 nM	103
sgRNA knockout: sgNFE2L2, 100 nM	114
sgRNA knockout: sgNFE2L2, 1000 nM	83.5
sgRNA knockout: sgNFE2L2, 10000 nM	43.9
sgRNA knockout: sgSLC35F2, 10 nM	112
sgRNA knockout: sgSLC35F2, 100 nM	95
sgRNA knockout: sgSLC35F2, 1000 nM	92.4
sgRNA knockout: sgSLC35F2, 10000 nM	70.2
sgRNA knockout: sgXBP1, 10 nM	99.1
sgRNA knockout: sgXBP1, 100 nM	83.1
sgRNA knockout: sgXBP1, 1000 nM	93.4
sgRNA knockout: sgXBP1, 10000 nM	43

Cc1cn(-c2cc(NC(=O)c3ccc(C)c(Nc4nccc(-c5cccnc5)n4)c3)cc(C(F)(F)F)c2)cn1 [Nilotinib]
Conditions	relative cell number
sgRNA knockout: sgATF3, 10 nM	128
sgRNA knockout: sgATF3, 100 nM	110
sgRNA knockout: sgATF3, 1000 nM	104
sgRNA knockout: sgATF3, 10000 nM	54.6
sgRNA knockout: sgATF4, 10 nM	138
sgRNA knockout: sgATF4, 100 nM	141
sgRNA knockout: sgATF4, 1000 nM	98.3
sgRNA knockout: sgATF4, 10000 nM	31.3
sgRNA knockout: sgATF6, 10 nM	134
sgRNA knockout: sgATF6, 100 nM	81.7
sgRNA knockout: sgATF6, 1000 nM	124
sgRNA knockout: sgATF6, 10000 nM	81
sgRNA knockout: sgATG7, 10 nM	70.1
sgRNA knockout: sgATG7, 100 nM	86.1
sgRNA knockout: sgATG7, 1000 nM	102
sgRNA knockout: sgATG7, 10000 nM	42.4
sgRNA knockout: sgERN1, 10 nM	112
sgRNA knockout: sgERN1, 100 nM	89
sgRNA knockout: sgERN1, 1000 nM	85.6
sgRNA knockout: sgERN1, 10000 nM	44.3
sgRNA knockout: sgHSF2, 10 nM	97.5
sgRNA knockout: sgHSF2, 100 nM	96.2
sgRNA knockout: sgHSF2, 1000 nM	101
sgRNA knockout: sgHSF2, 10000 nM	54.3
sgRNA knockout: sgNFE2L2, 10 nM	72.7
sgRNA knockout: sgNFE2L2, 100 nM	108
sgRNA knockout: sgNFE2L2, 1000 nM	98
sgRNA knockout: sgNFE2L2, 10000 nM	46
sgRNA knockout: sgSLC35F2, 10 nM	50
sgRNA knockout: sgSLC35F2, 100 nM	99.4
sgRNA knockout: sgSLC35F2, 1000 nM	138
sgRNA knockout: sgSLC35F2, 10000 nM	23.1
sgRNA knockout: sgXBP1, 10 nM	79.1
sgRNA knockout: sgXBP1, 100 nM	94.6
sgRNA knockout: sgXBP1, 1000 nM	86.2
sgRNA knockout: sgXBP1, 10000 nM	48.1

O=C(c1cc(Cc2n[nH]c(=O)c3ccccc23)ccc1F)N1CCN(C(=O)C2CC2)CC1 [Olaparib]
Conditions	relative cell number
sgRNA knockout: sgATF3, 10 nM	86.6
sgRNA knockout: sgATF3, 100 nM	108
sgRNA knockout: sgATF3, 1000 nM	108
sgRNA knockout: sgATF3, 10000 nM	62.4
sgRNA knockout: sgATF4, 10 nM	76.7
sgRNA knockout: sgATF4, 100 nM	77.9
sgRNA knockout: sgATF4, 1000 nM	82.9
sgRNA knockout: sgATF4, 10000 nM	73.7
sgRNA knockout: sgATF6, 10 nM	73.3
sgRNA knockout: sgATF6, 100 nM	93.8
sgRNA knockout: sgATF6, 1000 nM	72.8
sgRNA knockout: sgATF6, 10000 nM	85
sgRNA knockout: sgATG7, 10 nM	77.8
sgRNA knockout: sgATG7, 100 nM	76.7
sgRNA knockout: sgATG7, 1000 nM	82.4
sgRNA knockout: sgATG7, 10000 nM	73
sgRNA knockout: sgERN1, 10 nM	99.9
sgRNA knockout: sgERN1, 100 nM	105
sgRNA knockout: sgERN1, 1000 nM	71.3
sgRNA knockout: sgERN1, 10000 nM	73.5
sgRNA knockout: sgHSF2, 10 nM	86.7
sgRNA knockout: sgHSF2, 100 nM	103
sgRNA knockout: sgHSF2, 1000 nM	92.6
sgRNA knockout: sgHSF2, 10000 nM	58.3
sgRNA knockout: sgNFE2L2, 10 nM	107
sgRNA knockout: sgNFE2L2, 100 nM	102
sgRNA knockout: sgNFE2L2, 1000 nM	89.9
sgRNA knockout: sgNFE2L2, 10000 nM	55.6
sgRNA knockout: sgSLC35F2, 10 nM	94.7
sgRNA knockout: sgSLC35F2, 100 nM	65.9
sgRNA knockout: sgSLC35F2, 1000 nM	102
sgRNA knockout: sgSLC35F2, 10000 nM	65.2
sgRNA knockout: sgXBP1, 10 nM	90.2
sgRNA knockout: sgXBP1, 100 nM	96.1
sgRNA knockout: sgXBP1, 1000 nM	79.5
sgRNA knockout: sgXBP1, 10000 nM	63.5
